Reference: PubChem BioAssay AID743121 (NCATS, 2013)
In all, the deposit lists about 26,000 reagents; below is a random part of them. Over the whole deposit, 167 (0.63%) are marked active. 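Calls are per gene from RSA p-values that are not deposited; an individual active-marked siRNA can sensitise only weakly.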 Entries without a mark were called inactive. The numbers tell different reagents against one gene apart. Not all columns of the deposit are shown. No sequences are given here.

Assay: 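Partners whose loss is lethal together with topoisomerase I blockade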 (primary screen)
Cell system: MDA-MB-231 cells, a human breast cancer line
Reagent: single siRNA against human genes, 20 nM siRNA (0.8 pmol per well)
Duration: 120 h (drug added 48 h after transfection, read 72 h later)
Challenge: camptothecin 20 nM (about EC30) for 72 h; vehicle 0.1% DMSO in parallel plates
Measured: 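Cell viability by ATP luminescence (CellTiter-Glo) as % of non-targeting siRNA wells, and the log2 ratio of viability without drug over viability with camptothecin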
Reading the numbers: log2 vehicle/camptothecin viability: higher = stronger sensitisation to camptothecin; viability with camptothecin: higher = more viable cells
Rule for the call: 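Each gene scored by redundant siRNA activity (RSA) over its individual siRNA ratios; a gene is called active at p < 0.001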

For CASP1 #1, what was measured?
log2 vehicle/camptothecin viability: 0.653; viability with camptothecin (% of control): 54.6

What is on record for CASP1 #2?
log2 vehicle/camptothecin viability: 0.329; viability with camptothecin (% of control): 78.7

With CASP1 #3, what does the deposit list?
log2 vehicle/camptothecin viability: -0.803; viability with camptothecin (% of control): 76.8

What did the screen give for CASP1 #4?
log2 vehicle/camptothecin viability: 0.967; viability with camptothecin (% of control): 15.5

What did the screen give for BAP1 #1?
log2 vehicle/camptothecin viability: 0.227; viability with camptothecin (% of control): 90.5

Which result is listed for BAP1 #2?
log2 vehicle/camptothecin viability: -0.452; viability with camptothecin (% of control): 28.3

What is on record for BAP1 #3?
log2 vehicle/camptothecin viability: -0.503; viability with camptothecin (% of control): 80.4

How did the screen score BAP1 #4?
log2 vehicle/camptothecin viability: -0.178; viability with camptothecin (% of control): 74.7

2 consecutive records already listed, for reference:
CASP1 #1: log2 vehicle/camptothecin viability = 0.653; viability with camptothecin (% of control) = 54.6
CASP1 #2: log2 vehicle/camptothecin viability = 0.329; viability with camptothecin (% of control) = 78.7

The list goes on:
For WDSUB1 #1, what was measured?
log2 vehicle/camptothecin viability: 0.121; viability with camptothecin (% of control): 106

What is on record for WDSUB1 #2?
log2 vehicle/camptothecin viability: 0.0471; viability with camptothecin (% of control): 75.6

Which result is listed for WDSUB1 #3?
log2 vehicle/camptothecin viability: 0.176; viability with camptothecin (% of control): 40.4

What is on record for WDSUB1 #4?
log2 vehicle/camptothecin viability: -0.0429; viability with camptothecin (% of control): 106

With FAM53B #1, what does the deposit list?
log2 vehicle/camptothecin viability: 0.124; viability with camptothecin (% of control): 57

For FAM53B #2, what was measured?
log2 vehicle/camptothecin viability: -0.143; viability with camptothecin (% of control): 82.5

With FAM53B #3, what was measured?
log2 vehicle/camptothecin viability: -0.0606; viability with camptothecin (% of control): 99.3

Which result is listed for FAM53B #4?
log2 vehicle/camptothecin viability: 0.465; viability with camptothecin (% of control): 32.9
